Measured values: article doi:10.1101/2025.11.10.687702

Protein sequences, listed by entry. Tags and fused reporters are not part of them. Lines headed by an entry give the natural chain unless they say otherwise; changes in a name come on top.
UniProt Q709C8: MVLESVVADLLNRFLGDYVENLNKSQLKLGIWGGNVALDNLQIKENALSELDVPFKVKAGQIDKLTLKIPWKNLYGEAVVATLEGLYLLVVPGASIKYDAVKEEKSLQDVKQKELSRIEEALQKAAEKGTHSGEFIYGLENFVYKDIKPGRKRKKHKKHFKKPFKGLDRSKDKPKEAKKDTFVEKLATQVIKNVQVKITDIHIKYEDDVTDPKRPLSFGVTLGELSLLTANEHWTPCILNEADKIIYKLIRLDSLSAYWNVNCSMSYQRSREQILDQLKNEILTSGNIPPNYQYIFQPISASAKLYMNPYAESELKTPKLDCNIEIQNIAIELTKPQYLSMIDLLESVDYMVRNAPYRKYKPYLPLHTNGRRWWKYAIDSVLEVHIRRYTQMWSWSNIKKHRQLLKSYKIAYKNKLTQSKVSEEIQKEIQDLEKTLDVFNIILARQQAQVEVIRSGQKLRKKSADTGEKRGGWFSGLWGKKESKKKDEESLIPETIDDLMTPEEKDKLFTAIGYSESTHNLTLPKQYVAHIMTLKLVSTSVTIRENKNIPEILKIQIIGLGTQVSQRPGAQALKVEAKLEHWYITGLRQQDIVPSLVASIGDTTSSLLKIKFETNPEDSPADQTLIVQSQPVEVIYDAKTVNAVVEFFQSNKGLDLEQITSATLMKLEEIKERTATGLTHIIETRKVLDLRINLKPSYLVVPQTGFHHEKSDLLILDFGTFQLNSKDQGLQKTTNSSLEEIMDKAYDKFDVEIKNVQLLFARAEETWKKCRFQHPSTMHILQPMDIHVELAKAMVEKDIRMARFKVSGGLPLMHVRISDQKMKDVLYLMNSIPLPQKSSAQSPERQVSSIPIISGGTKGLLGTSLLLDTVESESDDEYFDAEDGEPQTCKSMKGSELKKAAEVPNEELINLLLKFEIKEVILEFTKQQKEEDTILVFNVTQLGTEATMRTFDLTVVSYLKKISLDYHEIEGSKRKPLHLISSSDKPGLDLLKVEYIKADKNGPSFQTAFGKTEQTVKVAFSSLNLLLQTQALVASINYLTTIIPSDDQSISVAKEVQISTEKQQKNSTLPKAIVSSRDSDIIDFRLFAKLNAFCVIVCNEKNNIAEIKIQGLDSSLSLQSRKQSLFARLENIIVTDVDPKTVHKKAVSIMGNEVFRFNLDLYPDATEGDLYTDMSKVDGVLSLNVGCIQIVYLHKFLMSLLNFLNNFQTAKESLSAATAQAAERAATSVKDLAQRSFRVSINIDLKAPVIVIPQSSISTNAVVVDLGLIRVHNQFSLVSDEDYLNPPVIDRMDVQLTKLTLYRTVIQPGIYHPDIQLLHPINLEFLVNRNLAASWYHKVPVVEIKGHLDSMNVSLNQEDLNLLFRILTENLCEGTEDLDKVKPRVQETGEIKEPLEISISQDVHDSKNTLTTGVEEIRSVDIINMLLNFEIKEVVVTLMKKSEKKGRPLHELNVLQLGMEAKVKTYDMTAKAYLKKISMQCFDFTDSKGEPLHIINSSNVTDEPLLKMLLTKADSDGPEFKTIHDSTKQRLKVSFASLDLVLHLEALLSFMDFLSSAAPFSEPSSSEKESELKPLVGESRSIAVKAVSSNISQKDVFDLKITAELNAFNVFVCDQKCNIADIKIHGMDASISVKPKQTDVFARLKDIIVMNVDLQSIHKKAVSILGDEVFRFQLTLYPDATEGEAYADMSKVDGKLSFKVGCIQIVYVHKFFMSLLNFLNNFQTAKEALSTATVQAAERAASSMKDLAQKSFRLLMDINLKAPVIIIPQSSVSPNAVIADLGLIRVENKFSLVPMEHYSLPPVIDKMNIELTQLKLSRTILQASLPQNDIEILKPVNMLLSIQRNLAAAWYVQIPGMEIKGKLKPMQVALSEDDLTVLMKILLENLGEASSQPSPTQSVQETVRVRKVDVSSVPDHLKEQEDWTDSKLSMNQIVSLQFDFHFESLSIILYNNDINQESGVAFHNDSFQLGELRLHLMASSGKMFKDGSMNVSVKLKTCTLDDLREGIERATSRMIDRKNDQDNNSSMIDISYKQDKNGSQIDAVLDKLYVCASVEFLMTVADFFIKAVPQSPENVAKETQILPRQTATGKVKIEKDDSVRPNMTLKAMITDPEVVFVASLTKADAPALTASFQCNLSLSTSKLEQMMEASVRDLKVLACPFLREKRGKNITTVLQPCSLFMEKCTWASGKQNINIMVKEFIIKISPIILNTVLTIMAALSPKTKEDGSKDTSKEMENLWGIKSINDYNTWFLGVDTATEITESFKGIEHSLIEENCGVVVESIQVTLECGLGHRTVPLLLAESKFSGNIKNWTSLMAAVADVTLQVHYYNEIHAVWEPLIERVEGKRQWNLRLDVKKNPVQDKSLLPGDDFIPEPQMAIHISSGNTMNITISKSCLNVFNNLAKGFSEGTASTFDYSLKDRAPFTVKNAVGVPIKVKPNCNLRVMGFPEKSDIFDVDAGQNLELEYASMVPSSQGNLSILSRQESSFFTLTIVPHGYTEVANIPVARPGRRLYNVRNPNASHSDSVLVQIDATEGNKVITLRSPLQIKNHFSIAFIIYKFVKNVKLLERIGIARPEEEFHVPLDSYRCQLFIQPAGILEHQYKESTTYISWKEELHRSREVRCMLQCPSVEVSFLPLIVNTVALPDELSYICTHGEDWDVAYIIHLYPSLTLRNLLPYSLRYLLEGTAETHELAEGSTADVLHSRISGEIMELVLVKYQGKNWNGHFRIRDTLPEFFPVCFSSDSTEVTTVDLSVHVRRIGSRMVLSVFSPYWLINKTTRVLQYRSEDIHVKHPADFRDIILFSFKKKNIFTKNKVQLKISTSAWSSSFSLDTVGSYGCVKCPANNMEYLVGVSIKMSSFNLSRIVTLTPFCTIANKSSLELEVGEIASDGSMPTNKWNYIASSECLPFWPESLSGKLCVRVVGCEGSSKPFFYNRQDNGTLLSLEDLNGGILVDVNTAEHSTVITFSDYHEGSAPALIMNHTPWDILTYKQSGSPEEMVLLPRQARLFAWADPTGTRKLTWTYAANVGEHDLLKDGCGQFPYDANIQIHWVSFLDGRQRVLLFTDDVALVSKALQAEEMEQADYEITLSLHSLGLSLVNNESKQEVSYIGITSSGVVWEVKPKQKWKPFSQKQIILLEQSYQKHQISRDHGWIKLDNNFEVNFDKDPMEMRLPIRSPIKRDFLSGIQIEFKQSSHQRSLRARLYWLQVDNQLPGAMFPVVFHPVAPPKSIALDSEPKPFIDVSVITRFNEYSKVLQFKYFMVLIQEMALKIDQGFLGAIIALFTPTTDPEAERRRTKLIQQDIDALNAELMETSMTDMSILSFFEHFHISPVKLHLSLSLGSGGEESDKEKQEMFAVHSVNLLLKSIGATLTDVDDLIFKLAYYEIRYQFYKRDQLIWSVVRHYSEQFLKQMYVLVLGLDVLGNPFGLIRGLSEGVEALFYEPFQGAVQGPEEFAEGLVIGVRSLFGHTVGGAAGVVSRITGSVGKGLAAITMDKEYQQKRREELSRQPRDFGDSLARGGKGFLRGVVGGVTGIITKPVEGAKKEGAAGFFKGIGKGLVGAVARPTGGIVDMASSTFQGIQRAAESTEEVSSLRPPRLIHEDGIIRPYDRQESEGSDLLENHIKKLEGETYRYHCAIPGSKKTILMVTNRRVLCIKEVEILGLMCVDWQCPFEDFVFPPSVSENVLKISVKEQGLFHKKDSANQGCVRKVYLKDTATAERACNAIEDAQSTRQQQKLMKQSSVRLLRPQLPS

Molecular target: T1, 6xHis-ATG7 (UniProt O95352)
T1 sequence: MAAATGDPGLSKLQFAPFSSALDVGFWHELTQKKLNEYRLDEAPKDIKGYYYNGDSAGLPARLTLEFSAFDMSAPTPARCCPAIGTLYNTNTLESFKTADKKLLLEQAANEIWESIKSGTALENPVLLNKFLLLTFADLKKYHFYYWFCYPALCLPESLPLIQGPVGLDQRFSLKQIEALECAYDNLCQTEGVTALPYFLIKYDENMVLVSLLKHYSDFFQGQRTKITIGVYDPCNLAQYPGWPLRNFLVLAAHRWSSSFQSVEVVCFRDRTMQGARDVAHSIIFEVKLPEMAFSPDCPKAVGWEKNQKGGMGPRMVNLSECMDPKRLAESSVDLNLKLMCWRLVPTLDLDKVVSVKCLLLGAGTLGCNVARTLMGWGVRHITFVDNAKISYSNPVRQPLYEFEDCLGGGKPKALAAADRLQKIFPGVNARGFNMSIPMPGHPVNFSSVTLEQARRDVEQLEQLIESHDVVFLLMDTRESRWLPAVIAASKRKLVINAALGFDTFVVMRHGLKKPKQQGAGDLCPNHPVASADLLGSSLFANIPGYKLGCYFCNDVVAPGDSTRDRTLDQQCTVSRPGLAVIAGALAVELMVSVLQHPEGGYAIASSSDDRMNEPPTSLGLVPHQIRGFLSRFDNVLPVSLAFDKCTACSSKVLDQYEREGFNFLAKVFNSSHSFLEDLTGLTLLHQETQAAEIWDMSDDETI
Experiment: liposome flotation; purified VPS13C construct with SUVs (84.8% POPC, 10% POPE, 5% DGS-NTA, 0.2% Rhodamine-PE) to which His-tagged Rab7A(QL) or ATG7 was tethered; 1 mM GTP, 2 mM Mg2+, room temperature 20 min; OptiPrep gradient, top fraction on SDS-PAGE; both purified

## VPS13C lacking the amphipathic helices of the ATG2_C motif, C-terminal 3xFLAG (from UniProt Q709C8)
  binding: no binding

No constants are given. Whether binding was seen depends on the method and setting. Sequences can lack the tags named with a protein.
